The data set can be described thus: Boc solid-phase peptide synthesis; benzhydrylamine resin; N,N'-dicyclohexyl carbodiimide (DCCI). The conditions noted are these: whole synthesis, HPLC.

HELM strings list residues between dots; [ac] is acetyl, [am] amide, other brackets name non-standard units.

As for “PEPTIDE1{S.C.N.T.A.T.C.V.T.H.R.L.A.G.L.L.S.R.S.G.G.V.V.K.D.N.F.V.P.T.N.V.G.S.E.A.F.[am]}$PEPTIDE1,PEPTIDE1,2:R3-7:R3$$$V2.0”, the “final purity (method not given)” value is listed as “about 95% or greater”.

These data come from patent US4530838A (The Salk Institute for Biological Studies, priority 1983, dated 1985).
